# Experimental data reported in the supplement of paper PMC8728848.
# The other results are listed elsewhere or left out.
# B1: GS7807G-bfa-506-18-506 (Bacteroides fragilis) (protein)
# chain: ASCDKFDEINTDPDATTKVTSSLLATGLLLDITSSSASKSFIYDELLAKQMAWGESMEDYQYNVFGRSGFGGYTTLINAQKMVESVSDDNVNAYDGLAHFIKAYKIFYMSMEMGDLPYEEALQGELGLVRPKYNTQKEVMNFILSDLETAYELFSTAKDFDGDPILGGSISKWKKATTAFQLKVLMHLSKKESDADLKVKERFARIVASGSLMESNEDNLQMKYADKANTVYPFHNTNTKHAGYAMLSTMLIDKFKATGDIRMFYYAKPAKAKLNEGVTADSWDAYIGTDPSLPFEQIEKAYATEQYSGFNARYTDYPSGEPVVRLGYAEQNFILAEAAVRGWISGDASAYYKKAIRAHMEFIASNTPDEEVYHHGHPITEEAIAAFLETPAIQLSGEKEEDIEKILTQRYLASFMQHPYDVYYDYRRTGYPVLPINPATNRNTMNDRLPMRWMYPKSESDYNLEHQNEALERQFGGVDDVNKLMWILQ
# Key:
# Assay in all cases: glycan array binding signal (z-score within array); higher = stronger binding
# Settings in all cases: glycan notation: IUPAC condensed, linker removed
# [1] = biological target: Gal3S6S(b1-4)GlcNAc
# In short: (§1)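 The Consortium for Functional Glycomics database supplied 3228 glycan arrays, of which those lacking an available protein sequence were dropped. The binding signal, a within-array Z-score, was averaged across arrays of the same protein sequence and across linkers. Negative scores can be read as non-binding.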
# [2] = biological target: Gal3S6S(b1-4)GlcNAc6S
# In short: as §1
# [3] = biological target: Gal4S(b1-4)GlcNAc
# In short: as §1
# [4] = biological target: Gal4S6S(b1-4)GlcNAc
# In short: as §1
# [5] = biological target: Gal6P(b1-4)GlcNAc
# In short: as §1
# [6] = biological target: Gal6S(b1-3)GlcNAc
# In short: as §1
# [7] = biological target: Gal6S(b1-3)GlcNAc6S
# In short: as §1
# [8] = biological target: Gal6S(b1-4)Glc
# In short: as §1
# [9] = biological target: Gal6S(b1-4)Glc6S
# In short: as §1
# [10] = biological target: Gal6S(b1-4)GlcNAc
# In short: as §1
# [11] = biological target: Gal6S(b1-4)GlcNAc6S
# In short: as §1
# [12] = biological target: GalNAc(a1-3)Gal
# In short: as §1
# [13] = biological target: GalNAc(a1-3)GalNAc
# In short: as §1
# [14] = biological target: GalNAc(a1-3)GalNAc(b1-3)Gal(a1-4)Gal(b1-4)Glc
# In short: as §1
# [15] = biological target: GalNAc(a1-3)GalNAc(b1-3)Gal(a1-4)Gal(b1-4)GlcNAc
# In short: as §1
# [16] = biological target: GalNAc(b1-3)Gal
# In short: as §1
# [17] = biological target: GalNAc(b1-3)Gal(a1-4)Gal(b1-4)GlcNAc
# In short: as §1
# [18] = biological target: GalNAc(b1-3)Gal(a1-4)Gal(b1-4)GlcNAc(b1-3)Gal(b1-4)Glc
# In short: as §1
# [19] = biological target: GalNAc(b1-3)Gal(a1-6)Gal(b1-4)Glc
# In short: as §1
# [20] = biological target: GalNAc(b1-3)GalNAc
# In short: as §1
# [21] = biological target: GalNAc(b1-3)GlcNAc
# In short: as §1
# [22] = biological target: GalNAc(b1-4)Gal(b1-4)Glc
# In short: as §1
# [23] = biological target: GalNAc(b1-4)GlcNAc
# In short: as §1
# [24] = biological target: GalNAc(b1-4)GlcNAc(b1-2)Man
# In short: as §1
# [25] = biological target: GalNAc(b1-4)GlcNAc(b1-2)Man(a1-3)[GalNAc(b1-4)GlcNAc(b1-2)Man(a1-6)]Man(b1-4)GlcNAc(b1-4)GlcNAc
# In short: as §1
# [26] = biological target: GalNAc(b1-4)GlcNAc(b1-3)GalNAc(b1-4)GlcNAc
# In short: as §1
# [27] = biological target: GalNAc(b1-4)GlcNAc6S
# In short: as §1
# [28] = biological target: GalNAc(b1-6)GalNAc
# In short: as §1
# [29] = biological target: GalNAc3S(b1-4)GlcNAc
# In short: as §1
# [30] = biological target: GalNAc3S(b1-4)GlcNAc3S
# In short: as §1
# [31] = biological target: GalNAc3S(b1-4)[Fuc(a1-3)]GlcNAc
# In short: as §1
# [32] = biological target: GalNAc4S6S(b1-4)GlcNAc
# In short: as §1
# [33] = biological target: GalNAc6S(b1-4)GlcNAc
# In short: as §1
# [34] = biological target: Glc(a1-4)Glc
# In short: as §1
# [35] = biological target: Glc(a1-4)Glc(a1-4)Glc(a1-4)Glc
# In short: as §1
# [36] = biological target: Glc(a1-6)Glc(a1-6)Glc
# In short: as §1
# [37] = biological target: Glc(a1-6)Glc(a1-6)Glc(a1-6)Glc
# In short: as §1
# [38] = biological target: Glc(b1-4)Glc
# In short: as §1
binder,measurement,setting,value
B1,glycan array binding signal (z-score),[1],-0.474
same,glycan array binding signal (z-score),[2],0.103
same,glycan array binding signal (z-score),[3],-0.273
same,glycan array binding signal (z-score),[4],-0.52
same,glycan array binding signal (z-score),[5],-0.613
same,glycan array binding signal (z-score),[6],1.3
same,glycan array binding signal (z-score),[7],-0.674
same,glycan array binding signal (z-score),[8],0.737
same,glycan array binding signal (z-score),[9],-0.275
same,glycan array binding signal (z-score),[10],0.284
same,glycan array binding signal (z-score),[11],0.089
same,glycan array binding signal (z-score),[12],-0.045
same,glycan array binding signal (z-score),[13],-0.209
same,glycan array binding signal (z-score),[14],-0.779
same,glycan array binding signal (z-score),[15],0.111
same,glycan array binding signal (z-score),[16],0.939
same,glycan array binding signal (z-score),[17],0.266
same,glycan array binding signal (z-score),[18],-0.567
same,glycan array binding signal (z-score),[19],-0.594
same,glycan array binding signal (z-score),[20],-0.744
same,glycan array binding signal (z-score),[21],0.616
same,glycan array binding signal (z-score),[22],2.04
same,glycan array binding signal (z-score),[23],0.77
same,glycan array binding signal (z-score),[24],1.89
same,glycan array binding signal (z-score),[25],0.171
same,glycan array binding signal (z-score),[26],-0.295
same,glycan array binding signal (z-score),[27],-0.234
same,glycan array binding signal (z-score),[28],-0.486
same,glycan array binding signal (z-score),[29],-0.649
same,glycan array binding signal (z-score),[30],-0.726
same,glycan array binding signal (z-score),[31],-0.216
same,glycan array binding signal (z-score),[32],-0.716
same,glycan array binding signal (z-score),[33],1.98
same,glycan array binding signal (z-score),[34],-1.02
same,glycan array binding signal (z-score),[35],-0.339
same,glycan array binding signal (z-score),[36],-0.914
same,glycan array binding signal (z-score),[37],-0.402
same,glycan array binding signal (z-score),[38],-0.922

# Some of the entries above, set out differently:
binder | measurement | setting | value
B1 | glycan array binding signal (z-score) | [24] | 1.89
same | glycan array binding signal (z-score) | [25] | 0.171
